Measured values as given in publication PMC7819943, “Rice protein-binding microarrays: a tool to detect cis-acting elements near promoter regions in rice”.
The list shows a part of the results.

By UniProt entry, the sequences of proteins in these tests, tags left out.
UniProt Q0JBA9, entry or part of it: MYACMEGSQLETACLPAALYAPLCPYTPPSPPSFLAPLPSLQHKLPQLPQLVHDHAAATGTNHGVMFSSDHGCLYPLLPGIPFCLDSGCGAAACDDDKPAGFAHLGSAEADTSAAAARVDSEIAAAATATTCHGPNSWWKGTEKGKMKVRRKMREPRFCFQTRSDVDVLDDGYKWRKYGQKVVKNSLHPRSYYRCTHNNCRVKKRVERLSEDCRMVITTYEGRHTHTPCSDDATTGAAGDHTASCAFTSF

Biological target: OsWRKY34 (Oryza sativa, UniProt Q0JBA9 1-250)
Assay: protein-binding microarray (RPBM); PBS, 2% BSA, 51.3 ng/ul salmon testes DNA, 50 uM zinc acetate, 200 nM TF, 25 C, 1 h; high values mean tight binding
Conditions: protein: recombinant; tags: N-terminal polyhistidine and DsRed monomer fusion (pET32a); label: CyDye5-dUTP incorporated in the synthesized complementary strand; 3' TTTTT single-stranded linker to array surface; dsDNA, one strand shown
How it was run: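 Transcription factors, each fused N-terminally to a polyhistidine tag and DsRed, were expressed in E. coli BL21-CodonPlus and purified on Ni–NTA. A custom Agilent array was made double-stranded by primer extension with Cy5-dUTP and blocked with 2% BSA. It was incubated with 200 nM protein in PBS, 2% BSA, salmon testes DNA and 50 µM zinc acetate at 25 °C for 1 h, then washed. The binding signal is per-feature fluorescence intensity (arbitrary units) read on an Axon 4000B scanner.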

Sequence | binding signal
TCATTGCACTTATTTTAGGACAGCCTACTCGCTTTTATTCCGGAGTCACCTAGTGCAG | 8810 fluorescence intensity (a.u.)
GCATGTCCCTGTGTTCAGCCTTCCGAGTTCACATTCATCACGGAGTCACCTAGTGCAG | 8370 fluorescence intensity (a.u.)
GTTTCTTGCAGAATTTTGTGATTTTATTATTCTTATTATCCGGAGTCACCTAGTGCAG | 8050 fluorescence intensity (a.u.)
GTTTGTTGCAGTTTGGTGTGTATGTTTGTTGCACTTTGATCGGAGTCACCTAGTGCAG | 9920 fluorescence intensity (a.u.)
CTTGTGGATTTCGTTCGAGTTCTTGTGGTTTTGGATCGGGCGGAGTCACCTAGTGCAG | 9590 fluorescence intensity (a.u.)
GCCCACCGTCGCTCCGCTCGCCACCCGCCACCTGCTGCCTCGGAGTCACCTAGTGCAG | 11900 fluorescence intensity (a.u.)
ACCCGCGGTGACGCGCTCCTTGACTCGGCGCCCCTGCTCGCGGAGTCACCTAGTGCAG | 8520 fluorescence intensity (a.u.)
GTTGTCTAGTGCTTGCTATTCTTCTACTAGTAGTATTATACGGAGTCACCTAGTGCAG | 9570 fluorescence intensity (a.u.)
CTCCACCTCCACTGCCGCCCCGCCGCCCAATCCACCACCACGGAGTCACCTAGTGCAG | 8370 fluorescence intensity (a.u.)
TTTCCCAGCATGTTCTGTGAAGTTTCCTTAGTCCATCTCCCGGAGTCACCTAGTGCAG | 8960 fluorescence intensity (a.u.)
GGGAGGGGTGGCTCGGCGGCGGTGCGGGGTGGCGGTGCTCCGGAGTCACCTAGTGCAG | 18700 fluorescence intensity (a.u.)
GATGATTGGTCCAAGTCATGGCTTCCGCTTTCCCTTTTGTCGGAGTCACCTAGTGCAG | 10600 fluorescence intensity (a.u.)
GAACCAGTATCCCGAACTTGTACACCACGCTTTCTTGGTCCGGAGTCACCTAGTGCAG | 9530 fluorescence intensity (a.u.)
AACCCTTTTATAGCACTTTTTTTTATCGGACATAACAAAACGGAGTCACCTAGTGCAG | 9520 fluorescence intensity (a.u.)
TCTTGGTCCTCTTATCCATATACTCTCTCCGTAAAAAAAACGGAGTCACCTAGTGCAG | 8310 fluorescence intensity (a.u.)
TACCGGATGATTTGTGTTCCTTTGCTGACTGTAGTGACGTCGGAGTCACCTAGTGCAG | 11300 fluorescence intensity (a.u.)
CGATGTTGACTTAAAGTCAGTCCTTTTAACTGATTTTCGGCGGAGTCACCTAGTGCAG | 11200 fluorescence intensity (a.u.)
GTAGATCACGGCTTACTTTTCTTTTCTCCCAGTTTGATCACGGAGTCACCTAGTGCAG | 8780 fluorescence intensity (a.u.)
TTGCTATTCTCACCCATTACACTTGCTTATCCACAGTCATCGGAGTCACCTAGTGCAG | 9240 fluorescence intensity (a.u.)
CCCTCGCAGCACCAACACCGCCGAGATCTCTCTTCTTCTTCGGAGTCACCTAGTGCAG | 10400 fluorescence intensity (a.u.)
GGTCGCTCGCCGTTCCTACTCCGAGTCCGAGTCAGTCCCTCGGAGTCACCTAGTGCAG | 8380 fluorescence intensity (a.u.)

Sequence | binding signal
CATCTTAATCTCATCATTAATTCCCTTGTGTAAACTCCTACGGAGTCACCTAGTGCAG | 8500 fluorescence intensity (a.u.)
TAGCCTAATCTTACCATTAGTTGTTGTCCTTGGTTGAATCCGGAGTCACCTAGTGCAG | 10100 fluorescence intensity (a.u.)
TTATATGTCCATTGCATCTGATAACACTAGCCATGTATGCCGGAGTCACCTAGTGCAG | 10400 fluorescence intensity (a.u.)
AGTACACCACTCCATTTCTCTCTCTTTCTCTCGCTTTCTTCGGAGTCACCTAGTGCAG | 12500 fluorescence intensity (a.u.)
TTTTTTCTCACATGTTTGACCATTCGTCTTATTCAAAAAACGGAGTCACCTAGTGCAG | 8550 fluorescence intensity (a.u.)
AGCCCAACTTGCTATCTGCCATTTTTGCCAACTTGCTACCCGGAGTCACCTAGTGCAG | 10800 fluorescence intensity (a.u.)
TGTCTTCTTTCTTTTCTGCTCTTTTCCCCGCGGCCATCCCCGGAGTCACCTAGTGCAG | 9870 fluorescence intensity (a.u.)
AGCTACCTCATTTATTAATACCTTTTTCTTTTCTTTGTTGCGGAGTCACCTAGTGCAG | 9640 fluorescence intensity (a.u.)
ATCCATACTGTTTTCAACCCTTAGGCTATATTCGATTAATCGGAGTCACCTAGTGCAG | 8990 fluorescence intensity (a.u.)
TCACGCTTGATTGTTCTATTAGGCCTGTTGTTATACAGATCGGAGTCACCTAGTGCAG | 8150 fluorescence intensity (a.u.)
GAAAAGATCGCCCCTTATCCGGAAAACCCGCTCTCACACCCGGAGTCACCTAGTGCAG | 8760 fluorescence intensity (a.u.)
GATTCATACAATTGTATGGTGTTAACATGGCGATTTTTTGCGGAGTCACCTAGTGCAG | 9120 fluorescence intensity (a.u.)
TCTCCTAGCCAATTATACGTTTTTTGTGTGTCCTGTGACACGGAGTCACCTAGTGCAG | 8540 fluorescence intensity (a.u.)
TTCTTCTTGTCTCATCTGCACCATTGACAAGCAATATCATCGGAGTCACCTAGTGCAG | 8580 fluorescence intensity (a.u.)
CAGGTCCATATTTCACCAATTCATTCATCAGCTGACAATCCGGAGTCACCTAGTGCAG | 9890 fluorescence intensity (a.u.)
CTGCTGCACTTCTCTCTCTCTCCTCGTCCTACAGGCTACACGGAGTCACCTAGTGCAG | 9580 fluorescence intensity (a.u.)
GGCGGCGACCTGATCTCTCTGCGTTTGTGTGCTCTGTTTCCGGAGTCACCTAGTGCAG | 11800 fluorescence intensity (a.u.)
CTAGACTGACTCGGTTTTTGTCAAAGTGTTCTGTAATTGCCGGAGTCACCTAGTGCAG | 8780 fluorescence intensity (a.u.)
CTCAACCATCGCCTCGGCCGCGCTGCCACGCCACTATAATCGGAGTCACCTAGTGCAG | 9180 fluorescence intensity (a.u.)
GACGTATCATAGTCTCTGTTTAGATTTCTAGTACTATGATCGGAGTCACCTAGTGCAG | 9340 fluorescence intensity (a.u.)
ACGGAAATATTCTACGCACGAAAGCCGCACACGTGTTTCCCGGAGTCACCTAGTGCAG | 8170 fluorescence intensity (a.u.)

Exported as labelled records: entries from further up.
AGCCCAACTTGCTATCTGCCATTTTTGCCAACTTGCTACCCGGAGTCACCTAGTGCAG
  binding signal: 10800 fluorescence intensity (a.u.)
TGTCTTCTTTCTTTTCTGCTCTTTTCCCCGCGGCCATCCCCGGAGTCACCTAGTGCAG
  binding signal: 9870 fluorescence intensity (a.u.)
AGCTACCTCATTTATTAATACCTTTTTCTTTTCTTTGTTGCGGAGTCACCTAGTGCAG
  binding signal: 9640 fluorescence intensity (a.u.)
ATCCATACTGTTTTCAACCCTTAGGCTATATTCGATTAATCGGAGTCACCTAGTGCAG
  binding signal: 8990 fluorescence intensity (a.u.)

The listing continues.

Sequence | binding signal
CACACCTCGCCTCCTCCTCGGCTTGGATCTCGCCGCATCACGGAGTCACCTAGTGCAG | 8210 fluorescence intensity (a.u.)
ATCGGCGCCGTCGACCGCGACCACCCTGCCGCCGAGCGCCCGGAGTCACCTAGTGCAG | 10300 fluorescence intensity (a.u.)
GCTATTCTCCCAGTCCCACGCCGCACCGCCCACACGGCGCCGGAGTCACCTAGTGCAG | 9500 fluorescence intensity (a.u.)
TTTTCCATTTAGGCTCTCGGTTTCACTGTACTCCAAATTACGGAGTCACCTAGTGCAG | 9560 fluorescence intensity (a.u.)
GCTATTATCGAGTTGCATGCATCGACCAATTCAACCAAAACGGAGTCACCTAGTGCAG | 8600 fluorescence intensity (a.u.)
GAGGACTCCCGTCGCCATCACGCCATCGCCGCTGCCTCCGCGGAGTCACCTAGTGCAG | 10900 fluorescence intensity (a.u.)
TATCGCCGTCGTCTCGCACTGCCTCCATCGGATATCCAGCCGGAGTCACCTAGTGCAG | 8390 fluorescence intensity (a.u.)
ATCACTGGTTTCTTTCTGGTCCAACCCCACACGGCCATTCCGGAGTCACCTAGTGCAG | 15800 fluorescence intensity (a.u.)
AGTTTTAAGTTGGACCACTCTTTATCTAATCATTTTAGTTCGGAGTCACCTAGTGCAG | 8540 fluorescence intensity (a.u.)
TTACCCACAATTTTAGGTTCTCATCTGCCACCACATATTTCGGAGTCACCTAGTGCAG | 8130 fluorescence intensity (a.u.)
GCGCGAGCTCCTCTCGAACTTCCTCAGCTTCGAGGTCTTCCGGAGTCACCTAGTGCAG | 9210 fluorescence intensity (a.u.)
AAAGTGGACTTTTTCCTTGGGTTGACGCTGCATCGAGGCCCGGAGTCACCTAGTGCAG | 8160 fluorescence intensity (a.u.)
TCTAGGTCTTTTTTCTCATATATTCCCTTCATCCTTAAATCGGAGTCACCTAGTGCAG | 9600 fluorescence intensity (a.u.)
CGTCATTCTTTCCTTCACGTCGCCACAGCCGTGACATCGTCGGAGTCACCTAGTGCAG | 8370 fluorescence intensity (a.u.)
GGCAGCATCAACCGTTACCCGCTTAAATCAACGGCCGAGACGGAGTCACCTAGTGCAG | 9700 fluorescence intensity (a.u.)
GTCACATACTCGCATTCTATTTACTCATGAATTAAACATTCGGAGTCACCTAGTGCAG | 9580 fluorescence intensity (a.u.)
GTCAAACGCCACGAGCTTTGACCAGTCAACGGTCAAAGTTCGGAGTCACCTAGTGCAG | 10600 fluorescence intensity (a.u.)
ACGACCCGCCCGCTGCCTCTCATTTTTATTATCATTGCGACGGAGTCACCTAGTGCAG | 9650 fluorescence intensity (a.u.)
GGGCTTATCCGCTTTGCCAGTCGCGGGCTTGGCTTTTTTACGGAGTCACCTAGTGCAG | 9480 fluorescence intensity (a.u.)
CGCCGCCTCGAACCGGACCAACCAACGACGGCTCGCTTCCCGGAGTCACCTAGTGCAG | 8370 fluorescence intensity (a.u.)
CGCGGCGAGGTTGACCCCGCCATCGTCGCCACCGTCCTCGCGGAGTCACCTAGTGCAG | 8700 fluorescence intensity (a.u.)

Copied from the list:
GGGCTTATCCGCTTTGCCAGTCGCGGGCTTGGCTTTTTTACGGAGTCACCTAGTGCAG | binding signal: 9480 fluorescence intensity (a.u.)
GTCAAACGCCACGAGCTTTGACCAGTCAACGGTCAAAGTTCGGAGTCACCTAGTGCAG | binding signal: 10600 fluorescence intensity (a.u.)

More entries

Sequence | binding signal
TGCTCCTAATTCGCCTGATCTGATCTCTGCCTTAGTTACTCGGAGTCACCTAGTGCAG | 8800 fluorescence intensity (a.u.)
ACAAATAGAGGGACCTAAAGTGAATTTATTCTTTCCGCATCGGAGTCACCTAGTGCAG | 9640 fluorescence intensity (a.u.)
CGCGCTCGCGACGCTCCGCTCCCCGGTGCCCGGTCCCCATCGGAGTCACCTAGTGCAG | 8790 fluorescence intensity (a.u.)
AGTAGTCTCTGTAGTTTCCATATAGAACTCTACTTGTCCTCGGAGTCACCTAGTGCAG | 8560 fluorescence intensity (a.u.)
AAACTTCCAACTTTTCCGTCACATCGACACACATAAACTTCGGAGTCACCTAGTGCAG | 8990 fluorescence intensity (a.u.)
GCCCAGATCCAAAAATACCCATTTTCCCATCCTTCACCGACGGAGTCACCTAGTGCAG | 9560 fluorescence intensity (a.u.)
AGCTTATCTTGTCGTGTGTTTATGCCTTGATGCAAGCTATCGGAGTCACCTAGTGCAG | 8540 fluorescence intensity (a.u.)
TTCCCAATAAAATTTTTGTACGTATACCATTGCTAAAGAACGGAGTCACCTAGTGCAG | 8290 fluorescence intensity (a.u.)
AACATTATGCGTCCGCCTTTGGTCCGGTGTGACACTGTGACGGAGTCACCTAGTGCAG | 8320 fluorescence intensity (a.u.)
AACCTTTTTAGCCAAATGCATGATCATATTGTTGTCCATTCGGAGTCACCTAGTGCAG | 8100 fluorescence intensity (a.u.)
CGCTCACTCGTCTCCTCTCGGTTTCTTTCTCTCTCTCTCTCGGAGTCACCTAGTGCAG | 8160 fluorescence intensity (a.u.)
ATAATTAATGGGTAAAGTTTTTTTTATATTTTTGTTGTTTCGGAGTCACCTAGTGCAG | 9510 fluorescence intensity (a.u.)
CTTCTTCTTCTTCTTCAGCTCGAGTTCTTCCTTAGCCATGCGGAGTCACCTAGTGCAG | 10600 fluorescence intensity (a.u.)
TTCGTTTCTGGCTTTTTCGTCGTGTTCCGATTTCAATCTCCGGAGTCACCTAGTGCAG | 12700 fluorescence intensity (a.u.)
TCGCCTTTCTGATCCACCGGTGACTCGGCCGGCCCGGTTGCGGAGTCACCTAGTGCAG | 10100 fluorescence intensity (a.u.)
TCTCTTTTCTCTCTCGCGCACGACCGCGCGACGCGAAGGTCGGAGTCACCTAGTGCAG | 9680 fluorescence intensity (a.u.)
ATCTCGTTTCGTCCTCGCCCGCCGCCTCCGCTTCCCATTCCGGAGTCACCTAGTGCAG | 15700 fluorescence intensity (a.u.)
TGCTGACAAAGCCTGTTGAGATCCAGGTGGGTGGGAGGAGCGGAGTCACCTAGTGCAG | 8900 fluorescence intensity (a.u.)
CACTCGTGACCTCAACCAAGCCCACCTTGCCTCACCATTGCGGAGTCACCTAGTGCAG | 8200 fluorescence intensity (a.u.)
GATCGTGGAATTAATTCCACCTTAGTTGTTATGGGCGGGTCGGAGTCACCTAGTGCAG | 11400 fluorescence intensity (a.u.)
TACCTCCGCTTCACCTTCACCTGCGCGATTCCGGCGAGCCCGGAGTCACCTAGTGCAG | 10100 fluorescence intensity (a.u.)
